Assay results taken from article PMC11343739.
These are yes or no findings as the source states them, for the method shown. In cells and extracts the contact can be indirect. Some results given as binding are weak or reduced against the parent protein; the word gives no strength.

The chains behind the UniProt entries cited, without tags or fusion partners.
UniProt Q09472: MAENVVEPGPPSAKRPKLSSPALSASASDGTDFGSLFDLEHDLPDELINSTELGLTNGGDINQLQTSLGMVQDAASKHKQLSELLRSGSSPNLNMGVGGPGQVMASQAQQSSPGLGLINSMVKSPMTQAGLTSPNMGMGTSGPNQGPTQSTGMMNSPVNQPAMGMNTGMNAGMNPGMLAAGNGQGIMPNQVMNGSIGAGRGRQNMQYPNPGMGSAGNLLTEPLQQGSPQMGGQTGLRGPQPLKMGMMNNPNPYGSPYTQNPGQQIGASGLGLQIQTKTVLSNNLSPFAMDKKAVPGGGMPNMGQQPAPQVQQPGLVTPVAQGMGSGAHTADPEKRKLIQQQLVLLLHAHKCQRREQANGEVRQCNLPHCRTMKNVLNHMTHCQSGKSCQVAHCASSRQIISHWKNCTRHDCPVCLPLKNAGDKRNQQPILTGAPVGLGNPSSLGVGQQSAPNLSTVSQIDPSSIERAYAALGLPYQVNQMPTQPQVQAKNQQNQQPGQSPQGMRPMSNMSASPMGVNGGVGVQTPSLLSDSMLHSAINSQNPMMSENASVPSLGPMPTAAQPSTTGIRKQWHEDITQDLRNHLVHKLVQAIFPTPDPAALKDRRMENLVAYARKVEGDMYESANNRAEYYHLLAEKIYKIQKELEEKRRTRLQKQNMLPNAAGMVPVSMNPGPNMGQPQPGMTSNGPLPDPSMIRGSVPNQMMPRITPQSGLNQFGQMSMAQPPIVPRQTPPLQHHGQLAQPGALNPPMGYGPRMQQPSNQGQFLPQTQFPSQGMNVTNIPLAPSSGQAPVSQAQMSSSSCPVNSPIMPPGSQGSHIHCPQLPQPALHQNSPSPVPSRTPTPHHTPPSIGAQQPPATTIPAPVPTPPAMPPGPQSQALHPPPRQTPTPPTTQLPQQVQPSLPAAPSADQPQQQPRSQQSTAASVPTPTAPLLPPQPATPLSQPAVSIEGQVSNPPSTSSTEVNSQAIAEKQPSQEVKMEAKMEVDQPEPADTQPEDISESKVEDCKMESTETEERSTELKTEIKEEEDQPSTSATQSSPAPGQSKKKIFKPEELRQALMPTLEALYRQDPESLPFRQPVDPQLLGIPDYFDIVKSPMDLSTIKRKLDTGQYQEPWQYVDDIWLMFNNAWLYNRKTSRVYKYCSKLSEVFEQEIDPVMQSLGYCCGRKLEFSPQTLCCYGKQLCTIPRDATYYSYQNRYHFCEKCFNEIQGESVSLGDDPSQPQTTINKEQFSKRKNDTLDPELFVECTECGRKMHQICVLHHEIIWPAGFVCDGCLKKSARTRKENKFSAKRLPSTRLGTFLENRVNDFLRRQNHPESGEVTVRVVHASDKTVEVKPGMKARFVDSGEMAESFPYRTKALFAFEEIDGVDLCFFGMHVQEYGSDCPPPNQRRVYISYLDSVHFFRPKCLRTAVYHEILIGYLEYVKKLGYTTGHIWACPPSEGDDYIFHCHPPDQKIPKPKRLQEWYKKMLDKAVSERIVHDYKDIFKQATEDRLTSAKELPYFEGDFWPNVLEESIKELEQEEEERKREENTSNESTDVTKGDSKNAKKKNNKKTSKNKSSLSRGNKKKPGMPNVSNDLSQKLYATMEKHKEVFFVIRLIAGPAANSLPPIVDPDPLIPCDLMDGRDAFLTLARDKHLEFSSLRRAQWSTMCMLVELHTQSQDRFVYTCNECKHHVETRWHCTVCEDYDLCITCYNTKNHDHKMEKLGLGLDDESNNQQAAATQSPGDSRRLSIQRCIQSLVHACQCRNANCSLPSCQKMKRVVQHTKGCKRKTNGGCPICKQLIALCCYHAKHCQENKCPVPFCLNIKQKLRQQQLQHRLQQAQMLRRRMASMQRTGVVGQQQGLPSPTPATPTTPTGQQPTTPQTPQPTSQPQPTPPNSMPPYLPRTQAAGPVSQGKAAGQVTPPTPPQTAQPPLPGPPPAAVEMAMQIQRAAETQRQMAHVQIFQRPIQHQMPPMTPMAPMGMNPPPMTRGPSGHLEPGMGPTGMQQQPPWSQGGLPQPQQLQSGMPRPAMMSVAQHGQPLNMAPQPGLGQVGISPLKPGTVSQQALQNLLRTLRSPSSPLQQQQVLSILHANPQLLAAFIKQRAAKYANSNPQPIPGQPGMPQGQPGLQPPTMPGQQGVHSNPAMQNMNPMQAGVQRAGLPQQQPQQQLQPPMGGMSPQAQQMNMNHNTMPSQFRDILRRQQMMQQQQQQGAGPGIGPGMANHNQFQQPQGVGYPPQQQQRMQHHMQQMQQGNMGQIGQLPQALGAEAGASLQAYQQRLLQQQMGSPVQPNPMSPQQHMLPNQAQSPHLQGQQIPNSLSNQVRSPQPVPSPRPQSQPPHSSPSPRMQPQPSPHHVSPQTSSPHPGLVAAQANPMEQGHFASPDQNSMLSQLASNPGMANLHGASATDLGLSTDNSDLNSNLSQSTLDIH
UniProt P05549: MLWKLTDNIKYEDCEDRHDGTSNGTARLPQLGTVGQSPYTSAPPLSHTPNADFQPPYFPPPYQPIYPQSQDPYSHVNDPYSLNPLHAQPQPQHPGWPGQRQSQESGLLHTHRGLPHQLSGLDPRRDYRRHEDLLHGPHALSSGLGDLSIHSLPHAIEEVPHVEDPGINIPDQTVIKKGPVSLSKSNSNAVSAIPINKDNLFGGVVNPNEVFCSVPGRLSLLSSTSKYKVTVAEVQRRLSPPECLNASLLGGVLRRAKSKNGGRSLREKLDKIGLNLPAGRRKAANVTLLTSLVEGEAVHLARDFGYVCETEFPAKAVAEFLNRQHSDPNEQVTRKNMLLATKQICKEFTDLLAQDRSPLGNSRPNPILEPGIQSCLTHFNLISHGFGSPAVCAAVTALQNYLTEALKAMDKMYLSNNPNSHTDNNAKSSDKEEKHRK

Biological target: EP300 (human (endogenous in 786-O and Caki-1)) (UniProt Q09472)
Assay: co-IP; Co-IP of EP300 with TFAP2A and SP1 in 786-O and Caki-1 cells; which protein was precipitated is not told

- binding: binds
Substance: TFAP2A (from UniProt P05549 1-437)
